# In patent US12491217B2, “Compositions and methods for promoting healthy neural development in an unborn baby” (The Regents of the University of California, priority 2019, dated 2025):
# Test: Metabolomics of fetal brain at E14.5
# Format: in vivo, C57Bl/6J mice
# Conditions: metabolite level in E14.5 fetal brain; for fold of change ABX/SPF: ANOVA contrast ABX/SPF; for fold of change GF/ABX: ANOVA contrast GF/ABX; for fold of change GF/SPF: ANOVA contrast GF/SPF; for fold of change GF/Sp: ANOVA contrast GF/Sp; for fold of change Sp/ABX: ANOVA contrast Sp/ABX; for fold of change Sp/SPF: ANOVA contrast Sp/SPF
Structure (SMILES),fold of change ABX/SPF,fold of change GF/ABX,fold of change GF/SPF,fold of change GF/Sp,fold of change Sp/ABX,fold of change Sp/SPF
O=C1CCN([C@@H]2O[C@H](CO)[C@@H](O)[C@H]2O)C(=O)N1 [compound 3550],0.73,0.98,0.71,0.78,1.26,0.91
Cc1cn([C@@H]2O[C@H](CO)[C@@H](O)[C@H]2O)c(=O)[nH]c1=O [compound 3552],0.91,0.80,0.73,0.64,1.25,1.14
O=c1ccn([C@H]2C[C@H](O)[C@@H](CO)O2)c(=O)[nH]1 [compound 3563],0.78,1.11,0.86,0.81,1.37,1.07
CC(CNC(N)=O)C(=O)O (stereo not drawn) [compound 3565],0.63,1.20,0.76,1.02,1.18,0.74
NC(=O)NCCC(=O)O [compound 3566],0.64,0.98,0.62,0.79,1.23,0.79
NCCC(=O)O [compound 3567],0.74,1.02,0.75,0.90,1.13,0.83
CC(=O)NCCC(=O)O [compound 3568],0.79,1.31,1.03,1.23,1.06,0.84
Nc1ccn([C@@H]2O[C@H](COP(=O)(O)OP(=O)(O)O)[C@@H](O)[C@H]2O)c(=O)n1 [compound 3572],0.81,0.81,0.65,1.12,0.72,0.58
Nc1ccn(C2OC(CO)C3OP(=O)(O)OC32)c(=O)n1 (stereo not drawn) [compound 3576],0.65,0.97,0.63,0.98,0.99,0.64
Nc1ccn([C@@H]2O[C@H](CO)[C@@H](O)[C@H]2O)c(=O)n1 [compound 3577],0.84,0.87,0.73,0.95,0.92,0.77
Nc1cc[nH]c(=O)n1 [compound 3578],0.90,1.12,1.01,1.17,0.96,0.86
Cn1c(=N)ccn([C@@H]2O[C@H](CO)[C@@H](O)[C@H]2O)c1=O [compound 3579],0.50,0.90,0.45,0.84,1.07,0.54
Cc1cn([C@@H]2O[C@H](CO)[C@@H](O)[C@H]2O)c(=O)nc1N [compound 3580],0.72,1.04,0.75,0.92,1.14,0.82
Nc1ccn([C@H]2C[C@H](O)[C@@H](COP(=O)(O)O)O2)c(=O)n1 [compound 3585],0.93,0.95,0.89,1.17,0.81,0.76
Nc1ccn([C@H]2C[C@H](O)[C@@H](CO)O2)c(=O)n1 [compound 3587],0.68,0.80,0.54,0.93,0.86,0.59
CO[C@@H]1[C@H](O)[C@@H](CO)O[C@H]1n1ccc(N)nc1=O [compound 3588],0.73,0.98,0.72,0.89,1.10,0.80
